This note sets out measurements from article PMC4418665 (PLoS ONE, 2015).

HELM strings list residues between dots; [ac] is acetyl, [am] amide, other brackets name non-standard units.

The nature of the data set: general procedure: Fmoc solid-phase peptide synthesis; 2-chlorotrityl chloride resin. Conditions: whole synthesis, Analytical RP-HPLC.

Take “PEPTIDE1{R.S.S.Y.R}$PEPTIDE1,PEPTIDE1,1:R1-5:R2$$$V2.0”: the “final HPLC purity” value amounted to 95.76%.
